Source: the supplement of paper PMC10849652
Some of the results follow.

Chains of the proteins cited; added tags and fusions are not shown. Lines headed by an entry give the natural chain unless they say otherwise; changes in a name come on top.
UniProt O96007: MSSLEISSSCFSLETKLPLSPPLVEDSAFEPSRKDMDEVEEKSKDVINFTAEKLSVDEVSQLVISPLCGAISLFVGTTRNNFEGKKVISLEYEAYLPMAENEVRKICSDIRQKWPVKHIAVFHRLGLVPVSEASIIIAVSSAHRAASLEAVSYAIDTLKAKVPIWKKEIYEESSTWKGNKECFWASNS
UniProt Q14165: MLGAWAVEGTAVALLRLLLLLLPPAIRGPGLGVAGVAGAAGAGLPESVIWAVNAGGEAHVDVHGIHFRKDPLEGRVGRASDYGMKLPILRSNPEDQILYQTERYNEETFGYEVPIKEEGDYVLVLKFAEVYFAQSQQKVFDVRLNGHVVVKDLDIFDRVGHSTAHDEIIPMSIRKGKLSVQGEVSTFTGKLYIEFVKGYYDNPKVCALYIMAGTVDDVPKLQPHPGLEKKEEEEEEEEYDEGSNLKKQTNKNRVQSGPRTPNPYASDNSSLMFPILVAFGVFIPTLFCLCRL
UniProt Q99547: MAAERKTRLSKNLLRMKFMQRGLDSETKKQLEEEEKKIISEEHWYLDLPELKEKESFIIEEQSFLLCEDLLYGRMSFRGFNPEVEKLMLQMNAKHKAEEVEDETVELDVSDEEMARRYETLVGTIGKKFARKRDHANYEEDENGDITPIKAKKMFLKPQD
UniProt Q9BPX6: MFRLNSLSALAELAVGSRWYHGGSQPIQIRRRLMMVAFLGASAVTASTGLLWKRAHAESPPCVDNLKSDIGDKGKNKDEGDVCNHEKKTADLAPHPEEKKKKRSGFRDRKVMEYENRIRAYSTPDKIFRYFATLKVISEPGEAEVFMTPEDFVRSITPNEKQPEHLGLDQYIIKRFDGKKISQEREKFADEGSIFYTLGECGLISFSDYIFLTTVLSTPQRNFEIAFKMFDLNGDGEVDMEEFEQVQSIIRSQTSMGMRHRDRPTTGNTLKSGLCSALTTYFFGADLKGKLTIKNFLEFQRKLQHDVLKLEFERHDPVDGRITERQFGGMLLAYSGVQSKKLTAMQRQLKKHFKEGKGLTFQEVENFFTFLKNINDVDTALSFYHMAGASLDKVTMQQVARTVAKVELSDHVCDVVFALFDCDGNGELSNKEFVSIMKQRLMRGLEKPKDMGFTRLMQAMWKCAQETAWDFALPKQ
UniProt Q13015: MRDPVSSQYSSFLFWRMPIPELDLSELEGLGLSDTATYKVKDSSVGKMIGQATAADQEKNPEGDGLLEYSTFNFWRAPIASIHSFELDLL
UniProt Q86TA1: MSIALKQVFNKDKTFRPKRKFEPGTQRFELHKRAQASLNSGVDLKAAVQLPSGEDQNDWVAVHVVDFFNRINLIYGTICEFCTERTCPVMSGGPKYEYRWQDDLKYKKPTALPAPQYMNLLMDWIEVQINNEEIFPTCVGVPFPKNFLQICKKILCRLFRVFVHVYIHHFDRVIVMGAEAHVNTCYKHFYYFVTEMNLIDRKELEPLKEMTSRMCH
UniProt Q7Z3U7: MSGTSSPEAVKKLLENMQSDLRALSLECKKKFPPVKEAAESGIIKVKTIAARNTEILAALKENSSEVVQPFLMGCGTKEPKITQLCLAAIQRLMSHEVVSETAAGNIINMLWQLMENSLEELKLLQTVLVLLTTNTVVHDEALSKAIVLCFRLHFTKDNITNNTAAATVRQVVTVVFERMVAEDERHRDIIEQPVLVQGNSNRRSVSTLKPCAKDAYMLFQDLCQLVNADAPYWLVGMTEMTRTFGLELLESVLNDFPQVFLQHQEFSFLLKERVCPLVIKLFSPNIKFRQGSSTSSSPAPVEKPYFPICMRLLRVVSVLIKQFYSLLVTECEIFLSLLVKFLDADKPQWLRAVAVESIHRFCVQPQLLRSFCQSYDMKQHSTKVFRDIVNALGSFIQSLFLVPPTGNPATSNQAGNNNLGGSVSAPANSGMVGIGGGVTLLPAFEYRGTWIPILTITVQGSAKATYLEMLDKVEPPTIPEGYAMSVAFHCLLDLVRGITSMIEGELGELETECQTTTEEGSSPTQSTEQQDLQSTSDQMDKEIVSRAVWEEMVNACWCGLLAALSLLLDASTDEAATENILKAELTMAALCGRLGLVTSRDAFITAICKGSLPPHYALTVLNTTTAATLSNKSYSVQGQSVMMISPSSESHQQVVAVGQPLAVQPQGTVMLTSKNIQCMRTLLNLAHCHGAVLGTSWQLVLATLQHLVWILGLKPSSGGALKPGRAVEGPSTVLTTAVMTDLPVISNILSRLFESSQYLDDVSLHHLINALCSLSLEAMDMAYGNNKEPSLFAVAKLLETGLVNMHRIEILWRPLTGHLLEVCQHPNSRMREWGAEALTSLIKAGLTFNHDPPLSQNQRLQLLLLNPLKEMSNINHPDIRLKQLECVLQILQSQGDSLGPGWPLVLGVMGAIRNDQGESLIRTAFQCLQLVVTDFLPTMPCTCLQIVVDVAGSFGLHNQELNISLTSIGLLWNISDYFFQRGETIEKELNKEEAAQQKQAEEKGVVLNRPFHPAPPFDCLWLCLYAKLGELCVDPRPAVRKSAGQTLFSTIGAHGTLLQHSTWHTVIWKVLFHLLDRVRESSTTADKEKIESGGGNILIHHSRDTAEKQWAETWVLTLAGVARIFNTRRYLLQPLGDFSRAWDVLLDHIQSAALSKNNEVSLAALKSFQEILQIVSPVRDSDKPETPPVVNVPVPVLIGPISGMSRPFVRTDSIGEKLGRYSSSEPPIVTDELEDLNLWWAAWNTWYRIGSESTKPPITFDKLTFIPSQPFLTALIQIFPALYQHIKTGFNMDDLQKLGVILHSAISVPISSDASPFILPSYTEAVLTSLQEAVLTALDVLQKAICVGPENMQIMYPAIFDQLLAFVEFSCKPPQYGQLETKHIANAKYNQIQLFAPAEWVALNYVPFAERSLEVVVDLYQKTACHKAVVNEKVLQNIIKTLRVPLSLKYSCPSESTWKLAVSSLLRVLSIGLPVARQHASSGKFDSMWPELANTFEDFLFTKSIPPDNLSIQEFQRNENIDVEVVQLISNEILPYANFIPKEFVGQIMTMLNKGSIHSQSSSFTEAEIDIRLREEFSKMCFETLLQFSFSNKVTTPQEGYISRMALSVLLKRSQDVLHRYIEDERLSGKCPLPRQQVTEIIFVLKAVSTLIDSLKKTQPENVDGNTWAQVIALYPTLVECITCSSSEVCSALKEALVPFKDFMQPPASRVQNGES
UniProt Q9H081: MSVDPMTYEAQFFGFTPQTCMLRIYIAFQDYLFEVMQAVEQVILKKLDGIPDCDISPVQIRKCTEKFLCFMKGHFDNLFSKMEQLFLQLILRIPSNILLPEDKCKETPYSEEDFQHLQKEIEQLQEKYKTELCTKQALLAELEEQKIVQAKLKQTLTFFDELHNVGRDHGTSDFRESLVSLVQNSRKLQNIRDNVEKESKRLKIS
UniProt Q8N4V1: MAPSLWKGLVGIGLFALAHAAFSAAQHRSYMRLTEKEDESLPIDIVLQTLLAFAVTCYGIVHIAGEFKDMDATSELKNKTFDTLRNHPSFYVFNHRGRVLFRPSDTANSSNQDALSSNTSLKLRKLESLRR
UniProt Q6WCQ1: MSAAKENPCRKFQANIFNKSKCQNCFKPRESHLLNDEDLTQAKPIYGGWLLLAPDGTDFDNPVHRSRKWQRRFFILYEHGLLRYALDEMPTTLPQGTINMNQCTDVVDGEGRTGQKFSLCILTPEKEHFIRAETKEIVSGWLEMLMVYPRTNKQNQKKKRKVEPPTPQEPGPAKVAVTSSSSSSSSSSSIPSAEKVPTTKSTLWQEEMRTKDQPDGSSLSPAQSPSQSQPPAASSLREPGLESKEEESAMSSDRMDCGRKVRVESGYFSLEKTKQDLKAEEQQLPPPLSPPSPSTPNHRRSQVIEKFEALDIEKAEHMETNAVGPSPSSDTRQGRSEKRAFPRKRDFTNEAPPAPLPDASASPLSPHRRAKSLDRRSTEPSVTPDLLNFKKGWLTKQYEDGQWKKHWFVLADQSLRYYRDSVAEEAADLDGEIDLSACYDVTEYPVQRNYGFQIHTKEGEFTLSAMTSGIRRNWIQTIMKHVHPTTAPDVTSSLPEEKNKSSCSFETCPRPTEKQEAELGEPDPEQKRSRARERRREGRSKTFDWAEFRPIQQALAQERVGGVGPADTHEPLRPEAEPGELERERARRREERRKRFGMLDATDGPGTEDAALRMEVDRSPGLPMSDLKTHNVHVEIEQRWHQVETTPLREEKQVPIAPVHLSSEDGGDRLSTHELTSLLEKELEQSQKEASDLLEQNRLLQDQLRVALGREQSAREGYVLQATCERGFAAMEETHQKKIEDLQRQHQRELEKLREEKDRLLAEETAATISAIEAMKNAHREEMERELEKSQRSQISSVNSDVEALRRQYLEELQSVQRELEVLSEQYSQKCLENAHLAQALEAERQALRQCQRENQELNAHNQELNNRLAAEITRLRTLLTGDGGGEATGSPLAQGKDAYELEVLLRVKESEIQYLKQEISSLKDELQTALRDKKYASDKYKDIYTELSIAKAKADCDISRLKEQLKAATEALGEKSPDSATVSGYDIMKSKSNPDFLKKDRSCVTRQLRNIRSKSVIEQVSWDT
UniProt Q9UL63, whole entry, looked up: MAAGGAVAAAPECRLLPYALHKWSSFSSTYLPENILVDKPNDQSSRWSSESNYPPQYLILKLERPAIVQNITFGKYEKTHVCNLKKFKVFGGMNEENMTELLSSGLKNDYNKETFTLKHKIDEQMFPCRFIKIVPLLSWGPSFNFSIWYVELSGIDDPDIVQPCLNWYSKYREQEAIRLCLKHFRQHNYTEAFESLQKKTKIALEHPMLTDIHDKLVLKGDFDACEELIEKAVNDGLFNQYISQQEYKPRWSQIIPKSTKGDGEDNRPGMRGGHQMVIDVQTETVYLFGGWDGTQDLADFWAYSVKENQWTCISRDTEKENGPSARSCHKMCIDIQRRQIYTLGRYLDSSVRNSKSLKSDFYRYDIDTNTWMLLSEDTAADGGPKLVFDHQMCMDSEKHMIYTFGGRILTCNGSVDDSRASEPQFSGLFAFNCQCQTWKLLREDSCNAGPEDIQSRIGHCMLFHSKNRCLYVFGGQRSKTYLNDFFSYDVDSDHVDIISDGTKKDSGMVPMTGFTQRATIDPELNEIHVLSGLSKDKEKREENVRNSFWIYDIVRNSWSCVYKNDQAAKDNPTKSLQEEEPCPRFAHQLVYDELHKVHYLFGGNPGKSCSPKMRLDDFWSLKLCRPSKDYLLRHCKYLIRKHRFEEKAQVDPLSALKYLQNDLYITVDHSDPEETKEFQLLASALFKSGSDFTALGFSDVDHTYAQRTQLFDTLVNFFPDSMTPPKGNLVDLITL
UniProt Q7L9L4: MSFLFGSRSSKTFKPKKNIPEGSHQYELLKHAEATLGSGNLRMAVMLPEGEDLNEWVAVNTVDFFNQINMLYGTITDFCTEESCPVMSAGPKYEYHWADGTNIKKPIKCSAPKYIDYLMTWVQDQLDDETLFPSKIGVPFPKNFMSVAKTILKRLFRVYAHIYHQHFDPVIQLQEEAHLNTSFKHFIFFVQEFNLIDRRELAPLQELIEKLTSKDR
UniProt Q96EN8: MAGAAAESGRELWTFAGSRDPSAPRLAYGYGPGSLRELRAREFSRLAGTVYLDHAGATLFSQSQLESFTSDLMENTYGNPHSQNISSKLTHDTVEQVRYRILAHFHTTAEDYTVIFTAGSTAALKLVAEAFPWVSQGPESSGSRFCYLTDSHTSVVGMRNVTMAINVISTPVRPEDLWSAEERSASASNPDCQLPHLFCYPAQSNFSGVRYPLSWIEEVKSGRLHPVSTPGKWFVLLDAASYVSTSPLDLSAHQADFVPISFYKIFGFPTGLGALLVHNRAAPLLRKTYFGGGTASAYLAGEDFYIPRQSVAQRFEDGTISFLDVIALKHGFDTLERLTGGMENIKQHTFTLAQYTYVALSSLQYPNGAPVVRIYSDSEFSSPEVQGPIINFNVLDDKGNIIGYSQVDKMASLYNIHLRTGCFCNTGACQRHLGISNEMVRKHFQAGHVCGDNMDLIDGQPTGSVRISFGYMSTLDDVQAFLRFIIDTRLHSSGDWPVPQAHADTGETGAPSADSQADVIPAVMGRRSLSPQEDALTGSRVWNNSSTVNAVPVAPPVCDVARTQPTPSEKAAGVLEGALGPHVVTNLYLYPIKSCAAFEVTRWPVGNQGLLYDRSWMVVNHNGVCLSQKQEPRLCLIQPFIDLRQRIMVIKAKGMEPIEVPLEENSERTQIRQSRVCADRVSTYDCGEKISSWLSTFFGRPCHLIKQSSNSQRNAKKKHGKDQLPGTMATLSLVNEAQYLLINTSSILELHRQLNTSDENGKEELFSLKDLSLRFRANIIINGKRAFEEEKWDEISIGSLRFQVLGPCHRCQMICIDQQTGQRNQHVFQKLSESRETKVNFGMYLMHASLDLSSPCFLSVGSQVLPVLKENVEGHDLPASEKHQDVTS
UniProt Q9NYP9: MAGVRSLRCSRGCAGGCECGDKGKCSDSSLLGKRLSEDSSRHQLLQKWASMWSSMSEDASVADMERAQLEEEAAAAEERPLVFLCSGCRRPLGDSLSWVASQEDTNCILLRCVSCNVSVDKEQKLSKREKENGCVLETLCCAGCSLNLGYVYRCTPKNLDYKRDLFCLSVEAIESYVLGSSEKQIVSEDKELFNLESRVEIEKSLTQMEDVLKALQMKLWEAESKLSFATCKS

What was measured:
Experiment in all cases: log2 fold change, soluble protein after heating vs DMSO (PISA); higher = thermal stabilisation; K562 cells, 10 uM, 30 min; active = over 0.2 and 3.5 SD of the protein, either way, in both replicates (recomputed)
[1] = compound: C1=CC=C(C=C1)[C@H](COC2=CC3=C(C=C2)NC(=O)N3)NC(=O)C4=CC=CN(C4=O)CC5=CC(=C(C=C5)F)F
Summary of the method: (§1)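 Soluble protein was defined as the supernatant after 21,000xg for 90 min. It came from K562 cells at 2×10^6 cells/mL given 10 μM compound for 30 min, heated in aliquots for 3 min across 48°C-58°C, pooled, and extracted in PBS with 0.5% NP-40 at 4°C, and was quantified by TMTpro 16plex LC-MS/MS with equalised channel sums. Thermal stability against control samples, from duplicates, is reported as log2 fold change.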

[2] = compound: CC1=C(SC2=C1C(=N[C@H](C3=NN=C(N32)C)CC(=O)N)C4=CC=C(C=C4)Cl)C
Summary of the method: as §1

[3] = compound: CC1=C2C(=CC=C1)N=C(N(C2=O)C3=CC=CC=C3C)CN4C=NC5=C(N=CN=C54)N
Summary of the method: as §1

[4] = compound: Cc1sc2c(c1C)C(c1ccc(Cl)cc1)=N[C@@H](CC(=O)OC(C)(C)C)c1nnc(C)n1-2
Summary of the method: as §1

[5] = compound: c1ccc([C@@H]2C[C@H]2NC2CCNCC2)cc1
Summary of the method: as §1

Measured: log2 fold change

MIPEP (UniProt Q99797)
inactive: [1] -0.011 | [2] 0.06 | [3] 0.113 | [4] -0.004 | [5] -0.02

MOV10 (UniProt Q9HCE1)
inactive: [1] 0.067 | [2] -0.095 | [3] -0.095 | [4] 0.145 | [5] 0.057

MOSPD2 (UniProt Q8NHP6)
inactive: [1] -0.011 | [2] 0.016 | [3] 0.061 | [4] 0.022 | [5] -0.018

MPP1 (UniProt Q00013)
inactive: [1] -0.055 | [2] -0.06 | [3] 0.051 | [4] -0.024 | [5] 0.013

MMAB (UniProt Q96EY8)
inactive: [1] 0.037 | [2] -0.009 | [3] 0 | [4] -0.035 | [5] 0.092

MOCS2 (UniProt O96007)
inactive: [1] 0.042 | [2] 0.039 | [3] 0.035 | [4] -0.002 | [5] 0.032

MRPL17 (UniProt Q9NRX2)
inactive: [1] 0.033 | [2] -0.175 | [3] -0.062 | [4] 0.031 | [5] -0.047

MRPL12 (UniProt P52815)
inactive: [1] -0.006 | [2] 0.076 | [3] -0.054 | [4] -0.082 | [5] -0.04

MRPL33 (UniProt O75394)
inactive: [1] 0.125 | [2] 0.033 | [3] 0.06 | [4] -0.022 | [5] -0.109

MLEC (UniProt Q14165)
inactive: [1] 0.046 | [2] 0.009 | [3] 0.018 | [4] -0.009 | [5] -0.021

MICAL3 (UniProt Q7RTP6)
inactive: [1] -0.007 | [2] 0.054 | [3] 0.101 | [4] 0.032 | [5] 0.037

MRPL53 (UniProt Q96EL3)
inactive: [1] 0.011 | [2] -0.045 | [3] 0.034 | [4] 0.001 | [5] -0.061

MPHOSPH6 (UniProt Q99547)
inactive: [1] 0.095 | [2] -0.083 | [3] 0.097 | [4] 0.08 | [5] -0.002

MICU1 isoform 3 (UniProt Q9BPX6)
inactive: [1] 0.005 | [2] -0.033 | [3] -0.06 | [4] 0.02 | [5] -0.036

MICOS13 (UniProt Q5XKP0)
inactive: [1] -0.018 | [2] 0.07 | [3] -0.032 | [4] 0 | [5] 0.003

MLLT11 (UniProt Q13015)
inactive: [1] -0.053 | [2] 0.117 | [3] -0.23 | [4] -0.041 | [5] 0.212

MPV17L2 (UniProt Q567V2)
inactive: [1] -0.02 | [2] 0.019 | [3] 0.022 | [4] -0.108 | [5] 0.068

MICAL2 (UniProt O94851)
inactive: [1] -0.078 | [2] 0.036 | [3] 0.074 | [4] -0.09 | [5] -0.016

MOB3B (UniProt Q86TA1)
inactive: [1] 0 | [2] 0.029 | [3] 0.178 | [4] 0.041 | [5] -0.088

MICB, A0A140T979
inactive: [1] 0 | [2] 0.041 | [3] -0.05 | [4] 0.026 | [5] -0.049

MOGS (UniProt Q13724)
inactive: [1] 0.053 | [2] 0 | [3] 0.033 | [4] -0.011 | [5] -0.01

MRPL41 (UniProt Q8IXM3)
inactive: [1] 0.119 | [2] -0.12 | [3] -0.073 | [4] 0.108 | [5] 0.011

MIF (UniProt P14174)
inactive: [1] -0.101 | [2] 0.016 | [3] 0.015 | [4] -0.083 | [5] 0.004

MRPL51 (UniProt Q4U2R6)
inactive: [1] 0.059 | [2] -0.116 | [3] -0.086 | [4] 0.113 | [5] -0.005

MRPL22 (UniProt Q9NWU5)
inactive: [1] -0.04 | [2] -0.062 | [3] -0.106 | [4] 0.01 | [5] -0.078

MITD1 (UniProt Q8WV92)
inactive: [1] -0.058 | [2] 0.022 | [3] -0.326 | [4] 0.045 | [5] 0.06

MORF4L1 isoform 2 (UniProt Q9UBU8)
inactive: [1] 0.028 | [2] -0.018 | [3] 0.095 | [4] -0.029 | [5] 0.004

MRPL54 (UniProt Q6P161)
inactive: [1] 0.091 | [2] -0.077 | [3] -0.139 | [4] 0.015 | [5] 0.101

MORF4L2 (UniProt Q15014)
inactive: [1] 0.089 | [2] 0.001 | [3] -0.002 | [4] 0.028 | [5] 0.091

MRPL21 (UniProt Q7Z2W9)
inactive: [1] 0.002 | [2] -0.13 | [3] -0.138 | [4] 0.06 | [5] -0.058

MON2 isoform 5 (UniProt Q7Z3U7)
inactive: [1] -0.023 | [2] 0.016 | [3] 0.109 | [4] -0.025 | [5] -0.073

MIS12 (UniProt Q9H081)
inactive: [1] -0.02 | [2] 0.013 | [3] 0.064 | [4] -0.117 | [5] -0.022

MPST isoform 2 (UniProt P25325)
inactive: [1] 0.05 | [2] 0.068 | [3] 0.071 | [4] 0.002 | [5] 0

MRPL40 (UniProt Q9NQ50)
inactive: [1] 0.064 | [2] -0.259 | [3] -0.091 | [4] 0.043 | [5] -0.054

MMGT1 isoform 2 (UniProt Q8N4V1)
inactive: [1] 0 | [2] 0.104 | [3] 0.033 | [4] -0.067 | [5] -0.038

MNT (UniProt Q99583)
inactive: [1] -0.054 | [2] 0.168 | [3] 0.167 | [4] 0.027 | [5] -0.152

MINPP1 (UniProt Q9UNW1)
inactive: [1] -0.007 | [2] 0.002 | [3] -0.016 | [4] 0.009 | [5] 0.036

MPRIP isoform 2 (UniProt Q6WCQ1)
inactive: [1] -0.014 | [2] 0 | [3] 0.022 | [4] -0.038 | [5] 0.005

MRPL45 (UniProt Q9BRJ2)
inactive: [1] 0.051 | [2] -0.007 | [3] 0 | [4] 0.065 | [5] -0.098

MKLN1 (UniProt Q9UL63)
inactive: [1] 0 | [2] 0.004 | [3] 0.038 | [4] -0.007 | [5] 0.01

MRPL24 (UniProt Q96A35)
inactive: [1] 0.009 | [2] -0.101 | [3] -0.094 | [4] -0.002 | [5] 0.001

MRPL42 (UniProt Q9Y6G3)
inactive: [1] 0.11 | [2] -0.032 | [3] -0.14 | [4] 0.06 | [5] 0.097

Copied from above (3 entries):
MICAL3 (UniProt Q7RTP6)
inactive: [1] -0.007 | [2] 0.054 | [3] 0.101 | [4] 0.032 | [5] 0.037

MRPL53 (UniProt Q96EL3)
inactive: [1] 0.011 | [2] -0.045 | [3] 0.034 | [4] 0.001 | [5] -0.061

MPHOSPH6 (UniProt Q99547)
inactive: [1] 0.095 | [2] -0.083 | [3] 0.097 | [4] 0.08 | [5] -0.002

Following part

MOB1B isoform 2 (UniProt Q7L9L4)
inactive: [1] -0.019 | [2] 0.042 | [3] 0.012 | [4] 0.004 | [5] 0.007

MKI67 (UniProt P46013)
inactive: [1] 0.03 | [2] -0.082 | [3] -0.041 | [4] 0.036 | [5] 0.036

MRPL55 isoform 2 (UniProt Q7Z7F7)
inactive: [1] 0.008 | [2] -0.081 | [3] -0.028 | [4] 0.121 | [5] -0.003

MRPL46 (UniProt Q9H2W6)
inactive: [1] 0 | [2] -0.1 | [3] -0.037 | [4] 0.009 | [5] 0.026

MPZL1 (UniProt O95297)
inactive: [1] 0.037 | [2] 0.068 | [3] 0.033 | [4] 0.014 | [5] -0.023

MOCOS (UniProt Q96EN8)
inactive: [1] 0.059 | [2] 0.033 | [3] 0.056 | [4] 0.024 | [5] 0.015

MRPL2 (UniProt Q5T653)
inactive: [1] 0.014 | [2] -0.12 | [3] -0.089 | [4] 0.031 | [5] -0.026

MMTAG2 (UniProt Q9BU76)
inactive: [1] 0.115 | [2] -0.215 | [3] -0.214 | [4] 0.228 | [5] 0.027

MRPL4 (UniProt Q9BYD3)
inactive: [1] 0.053 | [2] -0.057 | [3] -0.099 | [4] 0.097 | [5] -0.035

MIS18A (UniProt Q9NYP9)
inactive: [1] 0.007 | [2] 0 | [3] -0.011 | [4] -0.018 | [5] 0.03

MRPL34 (UniProt Q9BQ48)
inactive: [1] 0 | [2] -0.154 | [3] -0.073 | [4] 0.058 | [5] -0.051
